Laboratory results as given in PubChem BioAssay AID493014 (National Center for Advancing Translational Sciences (NCATS), 2011).
Hit rate of the full screen: of about 340,000 compounds, about 170 (0.05%) were called active. Inconclusive results, whose numbers are uncertain, are shown with a selection of clear calls. The call rests on the fitted dose curve; in most records, active means well fitted inhibition curve with a large enough effect in the signal ratio, with a control signal flat (not every such curve was filed as active); inconclusive means small, poorly fitted or top-dose-only effect, or effect the other way, or a change in a side signal; inactive means flat fitted curve, though single readings scatter; the % refers to the signal ratio. Potencies beside an inconclusive call are fits to weak or partial responses and may not hold up.

test: qHTS Assay to Find Inhibitors of Chronic Active B-Cell Receptor Signaling; conditions: ABC-DLBCL IkBa-CBG/CBR reporter, luminescence ratio (green luciferase fused to IkBa over red control in TMD8 lymphoma cells), 4 h; activity change, negative = inhibition: at 46.1 µM (top of the series);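 on activity change, negative = inhibition: plate controls were basal doxycycline-induced cells for no effect and cells given 10 µM MG132 for full effect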
Summary of the method: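 Cell line TMD8 (human ABC DLBCL), stably expressing tet-inducible CBG68-IkBa fusion and CBR; IMDM/0.5% FBS; cpd up to 46 uM; dox induction, 4 h, 37C/5% CO2; dual luminescence; green/red ratio; MG132 control.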
Potency means the concentration at half of the fitted maximal effect.

Question: For `COc1ccc(-c2nnc(SCC(=O)c3ccc(C)o3)o2)cc1`, which activity change, negative = inhibition is on record?
Answer: inconclusive: 21.9%

Question: With `CCOc1ccc(C(CC(=O)O)NC(=O)C(CC)c2ccccc2)cc1` (centres undefined) as the compound, how does the activity change, negative = inhibition read?
Answer: inactive

Question: With `Cc1ccc(-n2nnnc2SCC(=O)c2cc(C)n(-c3cc(C)on3)c2C)c(C)c1` as the compound, how does the activity change, negative = inhibition read?
Answer: inactive

Question: For `COC(=O)c1ccc(N/C=C/C(=O)c2ccc(OC)c(OC)c2)cc1`, which Potency is on record?
Answer: inconclusive: 1 µM [falling, full curve, poor fit]

Question: Which activity change, negative = inhibition does the source give for `CCc1ccc(-c2cc(C(=O)Nc3ccc(S(=O)(=O)NC(C)=O)cc3)c3ccccc3n2)cc1` here?
Answer: inconclusive: -1.26%

Question: For `C/C=C/c1ccc(OCC(=O)NCc2ccccc2OC)c(OC)c1`, which activity change, negative = inhibition is on record?
Answer: inconclusive: 0.688%

Question: Which Potency does the source give for `NC(=O)CC(NC(=O)Cc1cccc2ccccc12)c1ccc(NC2CC3CCC2C3)c([N+](=O)[O-])c1` (centres undefined) here?
Answer: inconclusive: 35.5 µM [falling, single point]

Question: Which Potency does the source give for `O=C(c1cc2ccccc2oc1=O)N(Cc1ccc(F)cc1)C1CCS(=O)(=O)C1` (centres undefined) here?
Answer: inconclusive: 25.1 µM [falling, single point]

Question: For `Cn1c2c(c(=O)n(C)c1=O)C(c1ccc(Br)cc1)C(C#N)=C(N)N2` (centres undefined), which activity change, negative = inhibition is on record?
Answer: inactive

Question: For `Cc1ccc(C)c(NS(=O)(=O)c2ccc3[nH]c(=O)oc3c2)c1`, which activity change, negative = inhibition is on record?
Answer: inactive

Question: For `Cc1cc(C(=O)NC(=S)Nc2ccccc2N2CCOCC2)ccc1[N+](=O)[O-]`, which activity change, negative = inhibition is on record?
Answer: inconclusive: 1.08%

Question: For `Cc1cccc2sc(NC(=O)CSc3cn[nH]n3)nc12`, which Potency is on record?
Answer: inconclusive: 22.4 µM [falling, partial curve]

Question: With `CCN(CC)C(=O)c1oc2ccc(S(=O)(=O)N3CC(C)CC(C)C3)cc2c1C` (centres undefined) as the compound, how does the activity change, negative = inhibition read?
Answer: inactive

Question: With `Cc1nc2ccccc2c(=O)n1/N=C/c1ccc([N+](=O)[O-])o1` as the compound, how does the activity change, negative = inhibition read?
Answer: inconclusive: -8.04%

Question: For `O=C(CCCN1C(=O)c2ccccc2C1=O)Nc1nnc(C2CC2)s1`, which Potency is on record?
Answer: inconclusive: 11.2 µM [rising, partial curve, poor fit]

Question: Which Potency does the source give for `O=C(Nc1cc(Cl)cc(Cl)c1)N1CCCN(Cc2ccccc2)CC1` here?
Answer: inconclusive: 3.98 µM [falling, partial curve, poor fit]

Question: With `Cc1nc(N/N=C\c2ccc3c(c2)OCO3)sc1C` as the compound, how does the activity change, negative = inhibition read?
Answer: inconclusive: 8.66%

Question: With `CC1=NN(C(N)=S)C(=O)C1N=Nc1ccc(O)cc1` (centres undefined) as the compound, how does the Potency read?
Answer: inconclusive: 22.4 µM [rising, single point]

Question: With `COc1ccc(-n2c(C)c(C)c3c(NCCCO)ncnc32)cc1` as the compound, how does the Potency read?
Answer: inconclusive: 35.5 µM [falling, single point]

Question: With `O=C(CNC(=S)N(Cc1ccccc1)Cc1ccccc1F)NCCc1ccccc1` as the compound, how does the activity change, negative = inhibition read?
Answer: inactive

Question: Which Potency does the source give for `Cc1ccccc1C(=O)NNC(=S)NC(=O)c1cccnc1` here?
Answer: inconclusive: 18.4 µM [falling, partial curve]

Question: With `CCCc1cc(=O)n2[nH]c(-c3ccc(C)cc3)cc2n1` as the compound, how does the Potency read?
Answer: inconclusive: 25.1 µM [falling, partial curve]

Question: With `N#Cc1nc(Cc2cccc3ccccc23)oc1NCc1ccc(F)cc1` as the compound, how does the Potency read?
Answer: inconclusive: 25.9 µM [falling, partial curve, poor fit]

Question: Which activity change, negative = inhibition does the source give for `CCOC(=O)N1CCN(C(=O)CCN2C(=O)/C(=C\c3cccc(OC)c3)SC2=S)CC1` here?
Answer: inactive

Question: For `CCCCc1nc2n[nH]c(N)c2c2c1CSC(C)(C)C2`, which Potency is on record?
Answer: inconclusive: 2.91 µM [falling, full curve, poor fit]

Question: With `Fc1ccc(OCc2nc(-c3ccc(Br)o3)no2)c(F)c1` as the compound, how does the activity change, negative = inhibition read?
Answer: inconclusive: 15.2%

Question: For `CCOC(=O)c1c(-c2ccc(OC)c(OC)c2)csc1NC(=O)C1CCCO1` (centres undefined), which activity change, negative = inhibition is on record?
Answer: inconclusive: -12.6%

Question: For `O=C(CSc1nnc(-c2ccccc2O)o1)N1CCCCC1`, which Potency is on record?
Answer: inconclusive: 35.5 µM [falling, single point]

Question: For `COc1cc(OC)cc(C(=O)OCC(=O)NCc2ccco2)c1`, which activity change, negative = inhibition is on record?
Answer: inconclusive: -1.23%

Question: With `CC1=NN(c2nc(-c3ccc(C#N)cc3)cs2)C(=O)C1` as the compound, how does the activity change, negative = inhibition read?
Answer: inconclusive: 14.4%

Question: With `Cc1ccc(S(=O)(=O)N2CCN(C(=O)CN3C(=O)NC4(CCCC4)C3=O)CC2)c(C)c1` as the compound, how does the activity change, negative = inhibition read?
Answer: inactive

Question: For `O=C1C(Cl)=C(Nc2ccccc2O)C(=O)N1c1ccccc1`, which Potency is on record?
Answer: inconclusive: 1 µM [falling, partial curve]

Question: With `O=C(/C=C/c1ccccc1)CC(O)(c1ccccc1)C(F)(F)C(F)F` (centres undefined) as the compound, how does the Potency read?
Answer: inconclusive: 29.1 µM [falling, single point]

Question: With `Cc1cc(C)c(NC(=O)CNC(=O)COC(=O)C2=COCCO2)c(C)c1` as the compound, how does the activity change, negative = inhibition read?
Answer: inconclusive: 10.9%

Question: Which activity change, negative = inhibition does the source give for `COc1ccccc1CN(C)C(=O)c1sccc1-c1ccccc1` here?
Answer: inconclusive: 2.49%

Question: Which activity change, negative = inhibition does the source give for `CCc1ccc(C(=O)CSc2n[nH]c(C)n2)cc1` here?
Answer: inconclusive: 4.06%

Question: With `O=C(CNC(=O)c1ccc([N+](=O)[O-])cc1)c1ccccc1` as the compound, how does the activity change, negative = inhibition read?
Answer: inconclusive: -20%

Question: For `CCOc1cc(N2CCOCC2)c(OCC)cc1NC(=O)COC(=O)[C@H](Cc1c[nH]c2ccccc12)NC(C)=O`, which activity change, negative = inhibition is on record?
Answer: inconclusive: 11.2%

Question: With `COc1cccc(/C=N/NC(=O)CCn2c3ccccc3c3ccccc32)c1` as the compound, how does the activity change, negative = inhibition read?
Answer: inactive

Question: With `C=CCNC(=S)N1CCc2c([nH]c3ccccc23)C1C` (centres undefined) as the compound, how does the Potency read?
Answer: inconclusive: 35.5 µM [falling, single point]

Question: For `CCOc1ccc(Nc2nc(CC(=O)OC)cc(=O)[nH]2)cc1`, which activity change, negative = inhibition is on record?
Answer: inconclusive: 8.98%

Question: With `COc1cccc(O)c1CN1CCC(C(=O)Nc2ccc(Oc3cccnc3)cc2)CC1` as the compound, how does the Potency read?
Answer: inconclusive: 28.2 µM [falling, partial curve, poor fit]

Question: With `COc1ccccc1/C=N\Nc1ccccc1[N+](=O)[O-]` as the compound, how does the activity change, negative = inhibition read?
Answer: inconclusive: -2.71%

Question: With `C=CCOc1ccc(S(C)(=O)=O)cc1` as the compound, how does the activity change, negative = inhibition read?
Answer: inconclusive: 3.13%

Question: With `COc1ccc(Nc2nc(Nc3ccc(OC)cc3)nc(-n3[nH]c(=O)c(C)c3C)n2)cc1` as the compound, how does the activity change, negative = inhibition read?
Answer: inconclusive: -4.25%

Question: For `O=S(=O)(NNc1ncc(C(F)(F)F)cc1Cl)c1ccccc1`, which activity change, negative = inhibition is on record?
Answer: inactive

Question: Which activity change, negative = inhibition does the source give for `COc1cccc(-c2c3c([nH]c(=O)c2C#N)CCc2cc(OC)ccc2-3)c1` here?
Answer: inconclusive: 4.79%

Question: Which Potency does the source give for `O=C(O)c1ccc(Nc2cnc3ccccc3n2)cc1` here?
Answer: inconclusive: 0.708 µM [rising, full curve, poor fit]

Question: Which Potency does the source give for `Cc1n[nH]c(C)c1CCc1nc2c3ccccc3nc(SCC(=O)Nc3ccc(F)cc3)n2n1` here?
Answer: inconclusive: 17.8 µM [falling, single point]
